Results are given in words; binding and its absence hold for the method and conditions named. In cells and extracts the contact can be indirect. These calls come from enrichment with a bait or labelling near it, and not all partners need be listed.

Amino acid sequences for entries named in this document (tags omitted). Residues count along the entry.
UniProt P04775: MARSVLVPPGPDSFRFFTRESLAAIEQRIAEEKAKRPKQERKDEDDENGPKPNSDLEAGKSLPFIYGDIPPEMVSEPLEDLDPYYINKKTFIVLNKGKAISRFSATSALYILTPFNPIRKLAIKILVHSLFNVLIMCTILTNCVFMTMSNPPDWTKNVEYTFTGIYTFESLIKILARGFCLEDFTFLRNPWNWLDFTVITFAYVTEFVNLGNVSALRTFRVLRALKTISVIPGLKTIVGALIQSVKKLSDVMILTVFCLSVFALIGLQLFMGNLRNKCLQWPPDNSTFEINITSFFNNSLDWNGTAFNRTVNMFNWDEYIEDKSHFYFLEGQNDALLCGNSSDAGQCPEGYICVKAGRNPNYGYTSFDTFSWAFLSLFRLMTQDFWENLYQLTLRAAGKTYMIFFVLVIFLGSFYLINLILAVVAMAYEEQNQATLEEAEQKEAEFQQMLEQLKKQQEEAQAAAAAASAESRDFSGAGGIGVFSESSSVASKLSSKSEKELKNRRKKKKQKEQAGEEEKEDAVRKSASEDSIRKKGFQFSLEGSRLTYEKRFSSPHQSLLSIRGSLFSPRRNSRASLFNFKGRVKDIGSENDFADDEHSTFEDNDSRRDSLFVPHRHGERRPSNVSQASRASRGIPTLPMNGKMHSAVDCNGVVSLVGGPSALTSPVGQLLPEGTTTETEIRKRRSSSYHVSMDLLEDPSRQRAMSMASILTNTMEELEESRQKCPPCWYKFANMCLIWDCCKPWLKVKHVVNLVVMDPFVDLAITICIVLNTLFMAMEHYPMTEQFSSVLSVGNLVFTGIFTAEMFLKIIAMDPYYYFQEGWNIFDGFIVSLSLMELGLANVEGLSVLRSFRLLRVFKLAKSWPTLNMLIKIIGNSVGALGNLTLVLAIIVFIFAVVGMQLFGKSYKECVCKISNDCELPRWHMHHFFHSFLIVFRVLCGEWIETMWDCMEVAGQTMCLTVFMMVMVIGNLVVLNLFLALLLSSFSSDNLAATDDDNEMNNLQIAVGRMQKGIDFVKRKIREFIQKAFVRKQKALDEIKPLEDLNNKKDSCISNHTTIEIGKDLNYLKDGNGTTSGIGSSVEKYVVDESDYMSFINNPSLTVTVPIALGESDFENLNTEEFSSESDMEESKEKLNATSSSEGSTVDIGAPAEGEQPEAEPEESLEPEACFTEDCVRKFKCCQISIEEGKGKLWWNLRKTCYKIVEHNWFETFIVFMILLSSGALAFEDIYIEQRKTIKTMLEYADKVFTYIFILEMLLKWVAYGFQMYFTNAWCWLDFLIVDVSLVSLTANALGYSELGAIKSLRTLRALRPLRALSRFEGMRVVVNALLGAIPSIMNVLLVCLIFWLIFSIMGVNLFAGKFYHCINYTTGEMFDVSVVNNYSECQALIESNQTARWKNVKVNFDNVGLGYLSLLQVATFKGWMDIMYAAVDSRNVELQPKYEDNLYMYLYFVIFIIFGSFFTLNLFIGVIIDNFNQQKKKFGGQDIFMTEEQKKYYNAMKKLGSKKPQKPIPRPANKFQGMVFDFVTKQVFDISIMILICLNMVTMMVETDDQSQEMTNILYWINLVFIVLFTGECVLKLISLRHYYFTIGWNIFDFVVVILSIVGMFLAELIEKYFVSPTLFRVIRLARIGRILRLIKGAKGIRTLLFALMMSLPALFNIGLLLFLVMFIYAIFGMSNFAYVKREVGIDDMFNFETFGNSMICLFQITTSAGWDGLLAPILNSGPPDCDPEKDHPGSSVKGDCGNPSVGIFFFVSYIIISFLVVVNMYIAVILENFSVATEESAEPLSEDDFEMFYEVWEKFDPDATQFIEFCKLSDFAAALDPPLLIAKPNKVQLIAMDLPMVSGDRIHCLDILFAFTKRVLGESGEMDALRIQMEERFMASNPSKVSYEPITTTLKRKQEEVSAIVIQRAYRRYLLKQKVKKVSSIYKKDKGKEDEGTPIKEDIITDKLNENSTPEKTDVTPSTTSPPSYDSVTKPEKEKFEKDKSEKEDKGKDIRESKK
UniProt P68511: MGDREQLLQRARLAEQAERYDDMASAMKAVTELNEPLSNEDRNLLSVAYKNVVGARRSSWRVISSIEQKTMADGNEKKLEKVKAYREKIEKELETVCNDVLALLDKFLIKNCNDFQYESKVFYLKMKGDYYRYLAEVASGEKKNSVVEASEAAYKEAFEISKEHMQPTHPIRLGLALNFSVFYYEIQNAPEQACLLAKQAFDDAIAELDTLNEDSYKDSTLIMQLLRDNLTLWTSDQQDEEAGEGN
UniProt O70511: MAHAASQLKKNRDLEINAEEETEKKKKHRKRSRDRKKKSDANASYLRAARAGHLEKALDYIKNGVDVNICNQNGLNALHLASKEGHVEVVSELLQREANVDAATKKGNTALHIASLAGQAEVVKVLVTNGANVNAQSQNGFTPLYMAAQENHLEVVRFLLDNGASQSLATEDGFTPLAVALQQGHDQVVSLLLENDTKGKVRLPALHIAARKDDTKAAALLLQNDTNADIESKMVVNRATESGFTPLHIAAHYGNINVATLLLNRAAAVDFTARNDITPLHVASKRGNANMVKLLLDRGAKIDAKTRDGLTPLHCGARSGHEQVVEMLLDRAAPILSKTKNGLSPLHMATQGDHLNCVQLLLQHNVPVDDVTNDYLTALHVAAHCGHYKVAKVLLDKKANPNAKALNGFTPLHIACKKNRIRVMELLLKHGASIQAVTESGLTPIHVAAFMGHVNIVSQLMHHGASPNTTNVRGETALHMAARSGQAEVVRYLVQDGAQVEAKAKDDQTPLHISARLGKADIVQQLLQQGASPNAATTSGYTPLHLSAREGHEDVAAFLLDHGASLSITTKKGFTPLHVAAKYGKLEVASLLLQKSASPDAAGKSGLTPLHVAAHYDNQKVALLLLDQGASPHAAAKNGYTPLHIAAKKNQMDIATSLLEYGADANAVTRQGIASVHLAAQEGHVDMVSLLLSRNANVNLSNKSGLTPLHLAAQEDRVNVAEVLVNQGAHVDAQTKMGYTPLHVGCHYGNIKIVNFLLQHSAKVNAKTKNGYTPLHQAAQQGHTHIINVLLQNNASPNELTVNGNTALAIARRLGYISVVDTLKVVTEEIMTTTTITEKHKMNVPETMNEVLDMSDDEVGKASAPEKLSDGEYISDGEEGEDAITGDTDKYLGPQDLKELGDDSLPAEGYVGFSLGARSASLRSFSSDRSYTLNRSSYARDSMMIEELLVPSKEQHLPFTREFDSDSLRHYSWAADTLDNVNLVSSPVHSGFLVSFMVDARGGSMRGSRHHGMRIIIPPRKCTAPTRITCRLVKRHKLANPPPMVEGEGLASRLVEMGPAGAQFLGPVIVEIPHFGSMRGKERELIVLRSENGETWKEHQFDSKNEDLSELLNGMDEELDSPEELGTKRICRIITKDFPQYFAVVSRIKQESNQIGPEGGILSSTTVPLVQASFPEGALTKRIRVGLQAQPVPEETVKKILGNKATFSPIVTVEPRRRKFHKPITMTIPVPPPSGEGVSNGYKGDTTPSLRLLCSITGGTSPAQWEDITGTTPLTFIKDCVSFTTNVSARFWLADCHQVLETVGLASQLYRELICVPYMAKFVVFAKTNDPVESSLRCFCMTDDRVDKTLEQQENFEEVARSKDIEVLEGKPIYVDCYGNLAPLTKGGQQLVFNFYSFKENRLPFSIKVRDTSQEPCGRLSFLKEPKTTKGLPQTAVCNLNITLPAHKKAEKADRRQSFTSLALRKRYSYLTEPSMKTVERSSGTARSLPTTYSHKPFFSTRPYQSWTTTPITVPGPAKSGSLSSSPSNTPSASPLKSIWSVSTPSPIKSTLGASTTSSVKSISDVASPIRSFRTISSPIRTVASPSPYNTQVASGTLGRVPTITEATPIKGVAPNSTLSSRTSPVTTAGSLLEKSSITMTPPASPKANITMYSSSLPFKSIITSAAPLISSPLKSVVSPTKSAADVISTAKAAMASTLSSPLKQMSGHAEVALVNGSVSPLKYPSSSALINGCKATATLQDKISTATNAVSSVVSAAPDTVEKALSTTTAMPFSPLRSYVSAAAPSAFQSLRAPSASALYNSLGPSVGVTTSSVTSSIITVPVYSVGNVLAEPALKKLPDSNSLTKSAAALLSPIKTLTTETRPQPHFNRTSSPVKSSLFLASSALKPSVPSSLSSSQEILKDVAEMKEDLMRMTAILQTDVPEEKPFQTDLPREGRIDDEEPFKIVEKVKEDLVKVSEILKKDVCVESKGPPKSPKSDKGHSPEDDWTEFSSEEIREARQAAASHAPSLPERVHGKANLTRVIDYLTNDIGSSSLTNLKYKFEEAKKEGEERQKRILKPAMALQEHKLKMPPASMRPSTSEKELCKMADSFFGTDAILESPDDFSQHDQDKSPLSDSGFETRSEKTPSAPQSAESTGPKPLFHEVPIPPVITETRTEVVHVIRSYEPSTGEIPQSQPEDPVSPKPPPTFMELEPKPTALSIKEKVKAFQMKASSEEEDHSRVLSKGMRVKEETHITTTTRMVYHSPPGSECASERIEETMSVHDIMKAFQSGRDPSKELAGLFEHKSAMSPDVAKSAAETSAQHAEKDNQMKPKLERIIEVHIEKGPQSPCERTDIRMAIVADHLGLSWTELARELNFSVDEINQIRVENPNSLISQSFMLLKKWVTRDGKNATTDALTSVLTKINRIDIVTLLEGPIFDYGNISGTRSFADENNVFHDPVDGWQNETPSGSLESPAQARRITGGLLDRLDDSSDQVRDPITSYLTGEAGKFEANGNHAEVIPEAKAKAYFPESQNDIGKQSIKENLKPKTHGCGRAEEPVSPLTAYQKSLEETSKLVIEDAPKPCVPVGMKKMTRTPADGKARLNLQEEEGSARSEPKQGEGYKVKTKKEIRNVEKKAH
UniProt P11275: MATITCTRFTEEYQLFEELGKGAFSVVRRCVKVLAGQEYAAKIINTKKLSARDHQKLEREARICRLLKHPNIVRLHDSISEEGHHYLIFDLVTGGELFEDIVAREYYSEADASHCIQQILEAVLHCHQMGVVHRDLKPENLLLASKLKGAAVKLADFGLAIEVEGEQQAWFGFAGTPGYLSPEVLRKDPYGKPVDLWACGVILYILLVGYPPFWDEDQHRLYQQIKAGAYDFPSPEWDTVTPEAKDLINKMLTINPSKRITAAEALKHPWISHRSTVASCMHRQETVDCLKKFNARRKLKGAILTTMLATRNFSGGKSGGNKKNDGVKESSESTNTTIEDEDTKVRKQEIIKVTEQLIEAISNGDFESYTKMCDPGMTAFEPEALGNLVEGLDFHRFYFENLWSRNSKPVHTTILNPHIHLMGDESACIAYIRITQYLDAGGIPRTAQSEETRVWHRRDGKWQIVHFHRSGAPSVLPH
UniProt P08413: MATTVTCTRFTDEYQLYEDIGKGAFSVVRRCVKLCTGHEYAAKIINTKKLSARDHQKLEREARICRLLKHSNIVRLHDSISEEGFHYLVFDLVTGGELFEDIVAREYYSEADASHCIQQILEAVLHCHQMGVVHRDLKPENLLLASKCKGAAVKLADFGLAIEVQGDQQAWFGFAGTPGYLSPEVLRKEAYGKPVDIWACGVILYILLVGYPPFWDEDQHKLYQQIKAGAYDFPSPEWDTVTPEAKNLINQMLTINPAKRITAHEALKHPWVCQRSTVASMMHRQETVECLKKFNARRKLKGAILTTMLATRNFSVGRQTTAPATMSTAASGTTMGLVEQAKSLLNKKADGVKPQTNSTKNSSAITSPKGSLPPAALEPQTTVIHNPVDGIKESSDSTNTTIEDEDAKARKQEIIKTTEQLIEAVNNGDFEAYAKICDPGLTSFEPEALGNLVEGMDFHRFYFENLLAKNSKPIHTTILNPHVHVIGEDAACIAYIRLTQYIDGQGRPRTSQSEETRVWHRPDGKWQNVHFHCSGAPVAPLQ
UniProt P54900, residues 30-215: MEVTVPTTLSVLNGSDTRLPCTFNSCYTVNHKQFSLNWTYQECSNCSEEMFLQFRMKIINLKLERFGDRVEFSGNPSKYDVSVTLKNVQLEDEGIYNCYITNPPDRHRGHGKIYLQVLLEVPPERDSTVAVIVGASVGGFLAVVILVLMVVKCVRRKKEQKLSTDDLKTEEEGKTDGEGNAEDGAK

Among the data in publication PMC4424400 are binding values, retold here.

First the molecules themselves.
B1: Fibroblast growth factor 12 (FGF12), native, from rat brain (protein, UniProt P61150 1-243)
chain: MAAAIASSLIRQKRQARESNSDRVSASKRRSSPSKDGRSLCERHVLGVFSKVRFCSGRKRPVRRRPEPQLKGIVTRLFSQQGYFLQMHPDGTIDGTKDENSDYTLFNLIPVGLRVVAIQGVKASLYVAMNGEGYLYSSDVFTPECKFKESVFENYYVIYSSTLYRQQESGRAWFLGLNKEGQIMKGNRVKKTKPSSHFVPKPIEVCMYREPSLHEIGEKQGRSRKSSGTPTMNGGKVVNQDST

The target of the first test is Voltage-gated sodium channel 1.2 (Nav1.2) alpha subunit, native, from rat brain (rat (endogenous in adult rat brain)) (UniProt P04775). As to the kind of experiment: affinity purification with mass spectrometry; anti-Nav1.2 monoclonal K69/3 immobilised on Protein-A/G beads; adult rat brain crude membrane extract in 1% Triton X-100, 0.15 M NaCl, 1 mM EDTA, 10 mM Tris-HCl pH 8.0; overnight at 4 °C; control mouse IgG; label-free quantitative nanoLC-MS/MS.
Consider B1, for which the binding result is given as “binds”.

Another test has the same target. Described as above. This is another data set of the same source.
On to “14-3-3η, native, from rat brain (from UniProt P68511 1-246)”, for which the binding result is recorded as “binds”.
The same measure, in the same setting: to “Ankyrin-3 (Ankyrin-G), native, from rat brain (from UniProt O70511 1-2622)” belongs “binds”; to “Ca2+/calmodulin-dependent protein kinase II alpha (CaMKII-α), native, from rat brain (from UniProt P11275 1-478) (enzyme)”, “binds”; to “Ca2+/calmodulin-dependent protein kinase II beta (CaMKII-β), native, from rat brain (from UniProt P08413 1-542) (enzyme)”, “binds”.
Consider “Nav channel beta2 subunit, native, from rat brain (from UniProt P54900 30-215)”, for which the binding entry is on record as “binds”.
